The source gives many values for each of these; only a part stands here.
Test system: Rattus norvegicus
Settings: short-term, duration: 28 days, oral, gavage, F, Sprague-Dawley

Measured: NOEL

Cc1cccc(Nc2cc(Cl)nc(SCC(=O)O)n2)c1C [[4-Chloro-6-(2,3-xylidino)-2-pyrimidinylthio]acetic acid]
25 mg/kg-day: Nonneoplastic effects_Forestomach - Epithelium, hyperplasia | Nonneoplastic effects_Forestomach - Inflammation, chronic active | Nonneoplastic effects_Kidney - Nephropathy, chronic progressive | Nonneoplastic effects_Lymph nodes - Mandibular, atrophy | Nonneoplastic effects_Lymph nodes - Mesenteric, atrophy | Nonneoplastic effects_Nose - Respiratory epithelium, hyperplasia | Nonneoplastic effects_Nose - Respiratory epithelium, inflammation, chronic active | Nonneoplastic effects_Spleen - Atrophy | Nonneoplastic effects_Spleen - Extramedullary hematopoiesis, increased | Nonneoplastic effects_Thymus - Lymphocyte, apoptosis | Nonneoplastic effects_Thyroid gland - Follicular cell hypertrophy

Source: EPA's ToxValDB 9.5
